## Cell number after 72 h of treatment

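Human melanoma cell lines in 1,536-well plates were treated with a pair of drugs for 72 h, then fixed, stained and imaged. The read-out is cell count (nuclei) in % of the DMSO control; lower values mean stronger growth inhibition or killing. Every drug was used at one fixed concentration, the higher of two screened. The file gives one value for each pair and line, without errors, so small differences may be noise.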
Only some of the drugs and lines screened are listed, without regard to their results.

Drugs:
SU6656 (2000 nM): CN(C)S(=O)(=O)c1ccc2c(c1)/C(=C/c1cc3c([nH]1)CCCC3)C(=O)N2
LFM-A13 (10000 nM): C/C(O)=C(\C#N)C(=O)Nc1cc(Br)ccc1Br
tamatinib (2000 nM): COc1cc(Nc2ncc(F)c(Nc3ccc4c(n3)NC(=O)C(C)(C)O4)n2)cc(OC)c1OC
pioglitazone (10000 nM): CCc1ccc(CCOc2ccc(CC3SC(=O)NC3=O)cc2)nc1 (configuration not stated)
XAV939 (10000 nM): Oc1nc(-c2ccc(C(F)(F)F)cc2)nc2c1CSCC2
GSK650394 (800 nM): O=C(O)c1ccc(-c2c[nH]c3ncc(-c4ccccc4)cc23)cc1C1CCCC1
PLX4720 (400 nM): CCCS(=O)(=O)Nc1ccc(F)c(C(=O)c2c[nH]c3ncc(Cl)cc23)c1F
ENMD-2076 (200 nM): Cc1cc(Nc2cc(N3CCN(C)CC3)nc(/C=C/c3ccccc3)n2)n[nH]1

{"pair": "pioglitazone and ENMD-2076", "C32": 88.2, "COLO 800": 64.1, "COLO 792": 77.3, "WM451Lu": 82.5, "COLO 829": 83.7, "WM3619": 71.2}
{"pair": "SU6656 and PLX4720", "C32": 85.5, "COLO 800": 56.2, "COLO 792": 72.0, "WM451Lu": 48.4, "COLO 829": 78.7, "WM3619": 72.7}
{"pair": "pioglitazone and PLX4720", "C32": 76.0, "COLO 800": 72.6, "COLO 792": 99.2, "WM451Lu": 61.0, "COLO 829": 84.2, "WM3619": 61.8}
{"pair": "XAV939 and tamatinib", "C32": 96.2, "COLO 800": 41.4, "COLO 792": 44.3, "WM451Lu": 88.0, "COLO 829": 91.8, "WM3619": 65.7}
{"pair": "tamatinib and ENMD-2076", "C32": 75.0, "COLO 800": 25.5, "COLO 792": 32.2, "WM451Lu": 70.6, "COLO 829": 74.5, "WM3619": 78.2}
{"pair": "PLX4720 and LFM-A13", "C32": 94.8, "COLO 800": 33.4, "COLO 792": 88.3, "WM451Lu": 59.8, "COLO 829": 93.9, "WM3619": 79.1}
{"pair": "XAV939 and ENMD-2076", "C32": 98.5, "COLO 800": 82.4, "COLO 792": 74.7, "WM451Lu": 97.1, "COLO 829": 93.6, "WM3619": 97.8}
{"pair": "pioglitazone and tamatinib", "C32": 96.8, "COLO 800": 49.0, "COLO 792": 45.4, "WM451Lu": 88.2, "COLO 829": 80.1, "WM3619": 66.5}
{"pair": "tamatinib and SU6656", "C32": 75.6, "COLO 800": 32.9, "COLO 792": 24.3, "WM451Lu": 47.3, "COLO 829": 53.9, "WM3619": 67.2}
{"pair": "SU6656 and LFM-A13", "C32": 93.8, "COLO 800": 68.2, "COLO 792": 63.2, "WM451Lu": 57.2, "COLO 829": 77.0, "WM3619": 62.6}
{"pair": "LFM-A13 and tamatinib", "C32": 82.3, "COLO 800": 35.4, "COLO 792": 40.4, "WM451Lu": 74.1, "COLO 829": 103, "WM3619": 68.5}
{"pair": "GSK650394 and XAV939", "C32": 102, "COLO 800": 77.7, "COLO 792": 83.4, "WM451Lu": 99.7, "COLO 829": 94.0, "WM3619": 65.0}
{"pair": "XAV939 and LFM-A13", "C32": 109, "COLO 800": 74.3, "COLO 792": 83.4, "WM451Lu": 127, "COLO 829": 116, "WM3619": 84.7}
{"pair": "ENMD-2076 and SU6656", "C32": 73.9, "COLO 800": 62.2, "COLO 792": 66.4, "WM451Lu": 73.5, "COLO 829": 80.2, "WM3619": 63.7}
{"pair": "GSK650394 and LFM-A13", "C32": 89.5, "COLO 800": 66.7, "COLO 792": 95.8, "WM451Lu": 97.3, "COLO 829": 85.4, "WM3619": 63.3}
{"pair": "ENMD-2076 and LFM-A13", "C32": 105, "COLO 800": 66.8, "COLO 792": 91.0, "WM451Lu": 85.0, "COLO 829": 89.4, "WM3619": 91.4}
{"pair": "GSK650394 and pioglitazone", "C32": 85.3, "COLO 800": 64.5, "COLO 792": 103, "WM451Lu": 101, "COLO 829": 84.3, "WM3619": 69.1}
{"pair": "PLX4720 and ENMD-2076", "C32": 76.0, "COLO 800": 83.5, "COLO 792": 101, "WM451Lu": 57.6, "COLO 829": 77.3, "WM3619": 74.2}
{"pair": "SU6656 and pioglitazone", "C32": 104, "COLO 800": 78.5, "COLO 792": 78.0, "WM451Lu": 118, "COLO 829": 94.2, "WM3619": 75.1}
{"pair": "GSK650394 and tamatinib", "C32": 96.3, "COLO 800": 42.2, "COLO 792": 51.3, "WM451Lu": 82.6, "COLO 829": 77.1, "WM3619": 79.5}
{"pair": "PLX4720 and XAV939", "C32": 87.3, "COLO 800": 95.8, "COLO 792": 80.9, "WM451Lu": 79.7, "COLO 829": 71.0, "WM3619": 89.3}

For reference, 2 entries once more:

| Pair | C32 | COLO 800 | COLO 792 | WM451Lu | COLO 829 | WM3619 |
|---|---|---|---|---|---|---|
| PLX4720 and LFM-A13 | 94.8 | 33.4 | 88.3 | 59.8 | 93.9 | 79.1 |
| PLX4720 and ENMD-2076 | 76.0 | 83.5 | 101 | 57.6 | 77.3 | 74.2 |

From a melanoma drug combination screen (doi:10.1371/journal.pone.0140310); values rounded.